Values from PubChem BioAssay AID743121 (NCATS, 2013)

Assay: 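Genes whose silencing strengthens cell killing by camptothecin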 (primary screen)
Cells: MDA-MB-231 cells, a human breast cancer line
Reagents: single siRNA against human genes, 20 nM siRNA (0.8 pmol per well)
Time to read-out: 120 h (drug added 48 h after transfection, read 72 h later)
Treatment: camptothecin 20 nM (about EC30) for 72 h; vehicle 0.1% DMSO in parallel plates
Measured: 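CellTiter-Glo ATP signal, scaled to control siRNA as percent viability; sensitisation given as log2 of untreated divided by camptothecin-treated viability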
Scale: log2 vehicle/camptothecin viability: higher = stronger sensitisation to camptothecin
Call rule: 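Each gene scored by redundant siRNA activity (RSA) over its individual siRNA ratios; a gene is called active at p < 0.001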
This is a random part of about 26,000 deposited reagents. Of all reagents, 167 (0.63%) got an active call. 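Calls are per gene from RSA p-values that are not deposited; an individual active-marked siRNA can sensitise only weakly.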 The numbers tell different reagents against one gene apart. Not all columns of the deposit are shown.

target	reagent	log2 vehicle/camptothecin viability	Call
PPP2R5A	1	-0.415	inactive
PPP2R5A	2	-0.157	inactive
PPP2R5A	3	-0.0592	inactive
PPP2R5A	4	-0.328	inactive
DPP3	1	-0.374	inactive
DPP3	2	-0.312	inactive
DPP3	3	-0.132	inactive
PDE3A	1	-0.197	inactive
PDE3A	2	-0.171	inactive
PDE3A	3	0.239	inactive
CEBPD	1	-0.203	inactive
CEBPD	2	-0.0369	inactive
CEBPD	3	0.3	inactive
CEBPD	4	-0.553	inactive
MKRN2	1	-0.147	inactive
MKRN2	2	-0.0201	inactive
MKRN2	3	-0.225	inactive
MKRN2	4	0.0124	inactive
E2F5	1	-0.623	inactive
E2F5	2	-0.437	inactive
E2F5	3	-0.0846	inactive
E2F5	4	-0.174	inactive
SEL1L	1	0.369	active
SEL1L	2	0.127	active
SEL1L	3	0.286	active
SEL1L	4	1.55	active
BCAR3	1	0.258	inactive
BCAR3	2	-0.487	inactive
BCAR3	3	-0.484	inactive
BCAR3	4	-0.314	inactive
CINP	1	0.0866	inactive
CINP	2	0.326	inactive
CINP	3	-0.274	inactive
CINP	4	-0.367	inactive
PRKCA	1	-0.239	inactive
PRKCA	2	0.0891	inactive
PRKCA	3	0.223	inactive
PRKCA	4	-0.43	inactive
CKS2	1	-0.183	inactive
CKS2	2	0.352	inactive
CKS2	3	-0.337	inactive
CKS2	4	0.283	inactive
IFFO1	1	-0.0555	inactive
IFFO1	2	0.688	inactive
IFFO1	3	-0.416	inactive
IFFO1	4	-0.0103	inactive
FAM219B	1	0.0236	inactive
FAM219B	2	0.295	inactive
FAM219B	3	0.0592	inactive
PDE1A	1	-0.031	inactive
PDE1A	2	-0.102	inactive
PDE1A	3	-0.543	inactive
PDE1A	4	-0.377	inactive
SOCS6	1	0.908	inactive
SOCS6	2	-0.323	inactive
SOCS6	3	-0.289	inactive
SOCS6	4	-0.282	inactive
IL1R2	1	0.224	inactive
IL1R2	2	-0.75	inactive
IL1R2	3	0.172	inactive
IL1R2	4	-0.105	inactive
TENM2	1	0.563	inactive
TENM2	2	-0.343	inactive
TENM2	3	-0.237	inactive
TENM2	4	-0.362	inactive
MORN4	1	-0.323	inactive
MORN4	2	0.0224	inactive
MORN4	3	0.0257	inactive
PFKFB3	1	-0.847	inactive
PFKFB3	2	0.112	inactive
PFKFB3	3	-0.29	inactive
PFKFB3	4	-0.0284	inactive
BMI1	1	-0.396	inactive
BMI1	2	0.187	inactive
BMI1	3	0.0105	inactive
CXCL3	1	-0.183	inactive
CXCL3	2	-0.0845	inactive
CXCL3	3	-0.0665	inactive
CXCL3	4	-0.187	inactive
ZNF280A	1	-0.112	inactive
ZNF280A	2	0.122	inactive
ZNF280A	3	-0.327	inactive
IKZF1	1	-0.0959	inactive
IKZF1	2	-0.305	inactive
IKZF1	3	-0.126	inactive
IKZF1	4	-0.0842	inactive
SSC4D	1	0.398	inactive
SSC4D	2	0.0212	inactive
SSC4D	3	-0.102	inactive
